“And” between values parts separate entries of the source, which are not always exact repeats. Equal entries are not always repeated. The source gives many values for each of these; only a part stands here.
Tested on: C57BL/6 mice
Test: Indirect calorimetry and exercise endurance under stepwise treadmill running
Type: in vivo, mouse
Conditions: DS20060511 30 mg/kg, individual mice 1-7, Fig. 5a
Description: The mice were acclimatized to the treadmill by allowing them to run at 10 m min^−1 for 10 min on the day before the test. On the day of the test, the mice received oral administration of 30 mg kg^−1 of DS20060511 or vehicle 15 min before they were made to run. The treadmill was started at a velocity of 10 m min^−1, with the speed increased stepwise by 2 m min^−1 every 3 min, to assess the exercise endurance capacity as described previously. Measurements of the oxygen consumption (VO2) and exhaled carbon dioxide (VCO2) under treadmill running were conducted with the ARCO-2000 magnetic-type mass spectrometric calorimeter (ARCO System, Kashiwa, Japan) connected to the treadmill chamber (MB-2000, ARCO System). The RER was calculated as the VCO2/VO2 ratio and the substrate utilization rates were calculated using Frayn’s formula[51]: rate of glucose oxidation = 4.585VCO2 − 3.226VO2; rate of fat oxidation = 1.695VO2 − 1.701VCO2. The exercise endurance capacity under treadmill running was determined by measuring the time from the start to the time until the mice ceased to run because of exhaustion, which was defined as remaining on the shocker plate for more than 10 sec. Immediately after the exercise, the blood glucose and lactate levels were measured using Glutest Every and Lactate Pro2 (ARKRAY, Kyoto, Japan), respectively, in blood samples collected from the tail vein.

In the case of `COc1ccc2c(C)c(C(=O)O)ccc2c1C1C2=C(CC(C)(C)CC2=O)OC2=C1C(=O)CC(C)(C)C2` [DS20060511], the Respiratory quotient (16 min) was 0.78 and 0.86 and 0.76 and 0.89, the “CO2 Production (VCO2)” value (17 min) was 102.6 mL/min/kg and 80.5 mL/min/kg and 83.3 mL/min/kg and 89.8 mL/min/kg and 70.1 mL/min/kg and 76.9 mL/min/kg and 107.2 mL/min/kg and the “O2 Consumption (VO2)” value (17 min) was 103.4 mL/min/kg and 100.7 mL/min/kg and 87.8 mL/min/kg and 97.5 mL/min/kg and 121.6 mL/min/kg and 126.0 mL/min/kg and 94.2 mL/min/kg. For the same compound, the Respiratory quotient (17 min) was 0.81 (2×) and 0.85 and 0.89 and 0.80 and 0.79 and 0.88, the “CO2 Production (VCO2)” value (18 min) was 98.6 mL/min/kg and 80.1 mL/min/kg and 82.1 mL/min/kg and 91.5 mL/min/kg and 69.5 mL/min/kg and 79.8 mL/min/kg and 109.4 mL/min/kg and the “O2 Consumption (VO2)” value (18 min) was 105.0 mL/min/kg and 107.4 mL/min/kg and 86.8 mL/min/kg and 99.6 mL/min/kg and 125.8 mL/min/kg and 122.7 mL/min/kg and 94.2 mL/min/kg. The Respiratory quotient (18 min) was 0.80 (3×) and 0.85 (2×) and 0.78 and 0.87, the “CO2 Production (VCO2)” value (19 min) was 98.1 mL/min/kg and 81.0 mL/min/kg and 80.8 mL/min/kg and 89.6 mL/min/kg and 72.7 mL/min/kg and 77.2 mL/min/kg and 110.0 mL/min/kg and the “O2 Consumption (VO2)” value (19 min) was 103.1 mL/min/kg and 107.1 mL/min/kg and 91.6 mL/min/kg and 94.9 mL/min/kg and 125.7 mL/min/kg and 121.0 mL/min/kg and 95.8 mL/min/kg. For the same compound, the Respiratory quotient (19 min) was 0.81 (2×) and 0.84 (2×) and 0.78 and 0.79 and 0.88, the “CO2 Production (VCO2)” value (20 min) was 97.2 mL/min/kg and 85.4 mL/min/kg and 85.1 mL/min/kg and 87.4 mL/min/kg and 72.3 mL/min/kg and 77.3 mL/min/kg and 106.6 mL/min/kg and the “O2 Consumption (VO2)” value (20 min) was 106.7 mL/min/kg and 104.2 mL/min/kg and 89.9 mL/min/kg and 95.9 mL/min/kg and 124.1 mL/min/kg and 122.6 mL/min/kg and 100.1 mL/min/kg. For the same compound, the Respiratory quotient (20 min) was 0.79 and 0.85 and 0.80 (2×) and 0.84 and 0.81 and 0.86, the “CO2 Production (VCO2)” value (21 min) was 97.2 mL/min/kg and 82.4 mL/min/kg and 85.1 mL/min/kg and 92.2 mL/min/kg and 73.6 mL/min/kg and 77.1 mL/min/kg and 108.9 mL/min/kg and the “O2 Consumption (VO2)” value (21 min) was 106.9 mL/min/kg and 109.6 mL/min/kg and 99.3 mL/min/kg and 95.8 mL/min/kg and 126.6 mL/min/kg and 123.0 mL/min/kg and 98.1 mL/min/kg. The Respiratory quotient (21 min) was 0.79 and 0.84 (2×) and 0.80 and 0.74 and 0.81 and 0.86, the “CO2 Production (VCO2)” value (22 min) was 98.8 mL/min/kg and 81.4 mL/min/kg and 84.3 mL/min/kg and 88.0 mL/min/kg and 87.9 mL/min/kg and 75.3 mL/min/kg and 109.5 mL/min/kg and the “O2 Consumption (VO2)” value (22 min) was 106.6 mL/min/kg and 104.4 mL/min/kg and 102.6 mL/min/kg and 94.6 mL/min/kg and 129.0 mL/min/kg and 123.2 mL/min/kg and 96.7 mL/min/kg. The Respiratory quotient (22 min) was 0.80 (2×) and 0.84 (2×) and 0.79 and 0.86 and 0.85, the “CO2 Production (VCO2)” value (23 min) was 101.3 mL/min/kg and 87.6 mL/min/kg and 86.2 mL/min/kg and 88.9 mL/min/kg and 89.5 mL/min/kg and 73.0 mL/min/kg and 108.0 mL/min/kg and the “O2 Consumption (VO2)” value (23 min) was 108.1 mL/min/kg and 105.9 mL/min/kg and 105.2 mL/min/kg and 92.7 mL/min/kg and 127.9 mL/min/kg and 126.3 mL/min/kg and 102.6 mL/min/kg. The Respiratory quotient (23 min) was 0.80 (2×) and 0.85 (2×) and 0.84 (2×) and 0.79, the “CO2 Production (VCO2)” value (24 min) was 99.1 mL/min/kg and 91.3 mL/min/kg and 86.5 mL/min/kg and 90.9 mL/min/kg and 97.7 mL/min/kg and 73.0 mL/min/kg and 109.0 mL/min/kg and the “O2 Consumption (VO2)” value (24 min) was 108.9 mL/min/kg and 108.3 mL/min/kg and 112.8 mL/min/kg and 90.9 mL/min/kg and 129.9 mL/min/kg and 119.4 mL/min/kg and 105.4 mL/min/kg. For the same compound, the Respiratory quotient (24 min) was 0.83 and 0.87 (2×) and 0.79 and 0.84 (2×) and 0.80, the “CO2 Production (VCO2)” value (25 min) was 95.1 mL/min/kg and 101.9 mL/min/kg and 86.8 mL/min/kg and 92.1 mL/min/kg and 97.1 mL/min/kg and 75.6 mL/min/kg and 108.3 mL/min/kg and the “O2 Consumption (VO2)” value (25 min) was 107.8 mL/min/kg and 109.0 mL/min/kg and 111.5 mL/min/kg and 96.0 mL/min/kg and 130.3 mL/min/kg and 116.8 mL/min/kg and 115.1 mL/min/kg. For the same compound, the Respiratory quotient (25 min) was 0.81 (2×) and 0.89 and 0.85 and 0.87 and 0.79 and 0.83, the “CO2 Production (VCO2)” value (26 min) was 105.9 mL/min/kg and 106.7 mL/min/kg and 91.0 mL/min/kg and 89.8 mL/min/kg and 99.2 mL/min/kg and 76.4 mL/min/kg and 104.5 mL/min/kg and the “O2 Consumption (VO2)” value (26 min) was 108.8 mL/min/kg and 104.5 mL/min/kg and 112.1 mL/min/kg and 95.8 mL/min/kg and 127.5 mL/min/kg and 123.0 mL/min/kg and 119.0 mL/min/kg. The Respiratory quotient (26 min) was 0.86 (2×) and 0.90 and 0.84 and 0.89 and 0.80 and 0.82, the “CO2 Production (VCO2)” value (27 min) was 110.9 mL/min/kg and 105.4 mL/min/kg and 92.2 mL/min/kg and 92.6 mL/min/kg and 97.1 mL/min/kg and 78.4 mL/min/kg and 105.9 mL/min/kg and the “O2 Consumption (VO2)” value (27 min) was 113.0 ml/min/kg and 109.1 ml/min/kg (2×) and 98.2 ml/min/kg and 129.9 ml/min/kg and 125.6 ml/min/kg and 119.1 ml/min/kg. The Respiratory quotient (27 min) was 0.88 and 0.89 (2×) and 0.82 (2×) and 0.85 and 0.80, the “CO2 Production (VCO2)” value (28 min) was 109.8 mL/min/kg and 107.4 mL/min/kg and 89.9 mL/min/kg and 93.1 mL/min/kg and 97.2 mL/min/kg and 75.3 mL/min/kg and 104.6 mL/min/kg and the “O2 Consumption (VO2)” value (28 min) was 110.8 mL/min/kg and 107.2 mL/min/kg and 112.5 mL/min/kg and 94.0 mL/min/kg and 130.4 mL/min/kg and 125.6 mL/min/kg and 121.3 mL/min/kg. The Respiratory quotient (28 min) was 0.87 (2×) and 0.89 and 0.81 and 0.86 and 0.80 (2×), the “CO2 Production (VCO2)” value (29 min) was 117.5 mL/min/kg and 107.4 mL/min/kg and 85.3 mL/min/kg and 89.8 mL/min/kg and 98.8 mL/min/kg and 74.5 mL/min/kg and 102.4 mL/min/kg and the “O2 Consumption (VO2)” value (29 min) was 104.5 mL/min/kg and 107.5 mL/min/kg and 114.5 mL/min/kg and 92.4 mL/min/kg and 127.2 mL/min/kg and 132.2 mL/min/kg and 121.5 mL/min/kg. The Respiratory quotient (29 min) was 0.89 and 0.88 and 0.82 and 0.84 and 0.86 and 0.81 (2×), the “CO2 Production (VCO2)” value (30 min) was 121.6 mL/min/kg and 108.7 mL/min/kg and 93.3 mL/min/kg and 90.8 mL/min/kg and 98.4 mL/min/kg and 78.4 mL/min/kg and 97.4 mL/min/kg and the “O2 Consumption (VO2)” value (30 min) was 112.8 mL/min/kg and 106.7 mL/min/kg and 115.0 mL/min/kg and 94.2 mL/min/kg and 122.8 mL/min/kg and 136.3 mL/min/kg and 122.9 mL/min/kg. The Respiratory quotient (30 min) was 0.89 and 0.88 and 0.83 (2×) and 0.85 and 0.86 and 0.79.
